# Source: US12714576B2, “System and method for treatment of bone” (SHANKAR RAJESWARAN M.D. LLC, priority 2020, dated 2026)
# At least one compound was matched to its structure with a doubt left.
# System: unicameral bone cyst (UBC)
# Test: Retrospective evaluation of pediatric patients with UBC treated by doxycycline chemical curettage (sclerotherapy) and injection of synthetic bone graft
# Type: in vivo
# Protocol: Summary. Retrospective evaluation of twelve pediatric patients, ages 5-14 years, undergoing treatment for a UBC, at a single institution. All UBCs were treated in a single, minimally invasive, image guided procedure using percutaneous needle access into the UBC followed by chemical curettage (a form of sclerotherapy) and injection of regenerative synthetic graft. Patients were followed clinically, and with serial radiographs, to evaluate for healing and complications. Mean time to return to full activity was 2.2 months post procedure, with a mean clinical follow-up time of 9.2 months.
# Methods. Fifteen patients were initially enrolled in this IRB approved study from August 2018 through May 2020. The diagnosis of UBC was made via radiographs and/or magnetic resonance imaging (MRI).
# Combination sclerotherapy and graft injection with CaSO4—CaPO4 was performed in a single setting as an outpatient procedure with an average procedure time of 45 minutes (range 30-60 minutes). Mean volume of doxycycline instilled during cyst sclerotherapy was 52 mL (20 mg/ml and a range 20-100 mL). Mean volume of CaSO4—CaPO4 synthetic graft material administered was 28 mL (range 4-90 mL).
# Patients were followed clinically for a minimum of three months post procedure, with radiographs performed at follow-up visits. One patient was excluded as they had imaging consistent with a fractured UBC that had subsequently rehealed into multiple cysts, and 2 other patients were excluded secondary to follow up of less than 3 months.
# Assessment of treatment response was evaluated using the Modified Neer Classification of Radiographic Healing, as shown above in Table 1. All radiographs were evaluated by four attending pediatric radiologists.
# Procedure Technique. All procedures were performed under general anesthesia. For each procedure, the cyst was localized under fluoroscopy, and the upper and lower margins of the cyst were marked on the skin. Ultrasound mapping of the area of concern was performed to identify critical structures such as arteries or nerves. However, the cyst itself could often be visualized sonographically due to associated cortical thinning.
# A 5 mm incision was made at each cyst margin as marked on the skin, and an 11-gauge or 14-gauge “treatment” needle was advanced into the cyst percutaneously. Choice of needle gauge was determined by cyst size and the expected amount of synthetic graft to be administered, with 11-gauge needles used in larger cysts. A second 5 mm incision was made along the remaining marked margin of the lesion, and a 14-gauge or 16-gauge “venting” needle was placed.
# Next, Omnipaque-180 (GE Healthcare), a water-soluble iodinated contrast, was diluted with sterile saline in a 1:1 ratio and was injected via the treatment needle during fluoroscopic visualization, taking care to ensure fluid egress via the venting needle. Contrast injection was performed to confirm a cystic nature of the UBC, to ensure adequate diffusion of the injected contrast throughout the cystic cavity, as well as to assess the presence of unexpected significant vascular outflow. Occasionally, an incomplete septation within the cyst was encountered, likely secondary healing change related to a prior pathologic fracture or prior treatment.
# Doxycycline (20 mg/mL), in a volume to match the cyst volume, was injected through the treatment needle and aspirated through the venting needle in a push-pull fashion, irrigating the cyst for one minute. The doxycycline was allowed to dwell for another nine minutes. A second round of sclerosant irrigation was then performed using similar technique and fresh doxycycline solution; thus, the total duration of doxycycline sclerotherapy was 20 minutes.
# Utilizing the cyst volume determined during initial contrast injection, a similar volume of synthetic bone graft material was prepared and injected through the treatment needle during live fluoroscopy. […]
smiles,measurement,setting,value
C[C@H]1c2cccc(O)c2C(=O)C2=C(O)[C@]3(O)C(=O)C(C(N)=O)=C(O)[C@@H](N(C)C)[C@@H]3[C@@H](O)[C@@H]21 [doxycycline],Cyst recurrence,12 patients,one case of recurrence noted at 3 months
same,Symptoms at most recent follow-up,"12 patients, mean clinical follow-up 9.2 months",all patients remained asymptomatic
same,Radiographic finding (FIG. 5B),"left humerus UBC with prior healed pathologic fracture, person, three months post treatment","increased cortical thickening and dense packing of the synthetic graft 515, consistent with healing"
same,Radiographic finding (FIG. 4C),"left proximal femur UBC, person, 3 month follow up",cortical thickening and progressive sclerosis
same,Radiographic finding (FIG. 6C),"right humerus UBC recurrent after surgical curettage and grafting, person, 3 months post treatment",increased sclerosis (stiffening or hardening) and cortical thickening
same,Radiographic finding (FIG. 6D),"right humerus UBC recurrent after surgical curettage and grafting, person, 12 months post treatment",complete graft resorption 635 without evidence of cyst recurrence
